Test results taken from the supplement of paper PMC10849652.
The other results are listed elsewhere or left out.

Protein sequences, listed by entry. Tags and fused reporters are not part of them. Lines headed by an entry give the natural chain unless they say otherwise; changes in a name come on top.
UniProt O14646: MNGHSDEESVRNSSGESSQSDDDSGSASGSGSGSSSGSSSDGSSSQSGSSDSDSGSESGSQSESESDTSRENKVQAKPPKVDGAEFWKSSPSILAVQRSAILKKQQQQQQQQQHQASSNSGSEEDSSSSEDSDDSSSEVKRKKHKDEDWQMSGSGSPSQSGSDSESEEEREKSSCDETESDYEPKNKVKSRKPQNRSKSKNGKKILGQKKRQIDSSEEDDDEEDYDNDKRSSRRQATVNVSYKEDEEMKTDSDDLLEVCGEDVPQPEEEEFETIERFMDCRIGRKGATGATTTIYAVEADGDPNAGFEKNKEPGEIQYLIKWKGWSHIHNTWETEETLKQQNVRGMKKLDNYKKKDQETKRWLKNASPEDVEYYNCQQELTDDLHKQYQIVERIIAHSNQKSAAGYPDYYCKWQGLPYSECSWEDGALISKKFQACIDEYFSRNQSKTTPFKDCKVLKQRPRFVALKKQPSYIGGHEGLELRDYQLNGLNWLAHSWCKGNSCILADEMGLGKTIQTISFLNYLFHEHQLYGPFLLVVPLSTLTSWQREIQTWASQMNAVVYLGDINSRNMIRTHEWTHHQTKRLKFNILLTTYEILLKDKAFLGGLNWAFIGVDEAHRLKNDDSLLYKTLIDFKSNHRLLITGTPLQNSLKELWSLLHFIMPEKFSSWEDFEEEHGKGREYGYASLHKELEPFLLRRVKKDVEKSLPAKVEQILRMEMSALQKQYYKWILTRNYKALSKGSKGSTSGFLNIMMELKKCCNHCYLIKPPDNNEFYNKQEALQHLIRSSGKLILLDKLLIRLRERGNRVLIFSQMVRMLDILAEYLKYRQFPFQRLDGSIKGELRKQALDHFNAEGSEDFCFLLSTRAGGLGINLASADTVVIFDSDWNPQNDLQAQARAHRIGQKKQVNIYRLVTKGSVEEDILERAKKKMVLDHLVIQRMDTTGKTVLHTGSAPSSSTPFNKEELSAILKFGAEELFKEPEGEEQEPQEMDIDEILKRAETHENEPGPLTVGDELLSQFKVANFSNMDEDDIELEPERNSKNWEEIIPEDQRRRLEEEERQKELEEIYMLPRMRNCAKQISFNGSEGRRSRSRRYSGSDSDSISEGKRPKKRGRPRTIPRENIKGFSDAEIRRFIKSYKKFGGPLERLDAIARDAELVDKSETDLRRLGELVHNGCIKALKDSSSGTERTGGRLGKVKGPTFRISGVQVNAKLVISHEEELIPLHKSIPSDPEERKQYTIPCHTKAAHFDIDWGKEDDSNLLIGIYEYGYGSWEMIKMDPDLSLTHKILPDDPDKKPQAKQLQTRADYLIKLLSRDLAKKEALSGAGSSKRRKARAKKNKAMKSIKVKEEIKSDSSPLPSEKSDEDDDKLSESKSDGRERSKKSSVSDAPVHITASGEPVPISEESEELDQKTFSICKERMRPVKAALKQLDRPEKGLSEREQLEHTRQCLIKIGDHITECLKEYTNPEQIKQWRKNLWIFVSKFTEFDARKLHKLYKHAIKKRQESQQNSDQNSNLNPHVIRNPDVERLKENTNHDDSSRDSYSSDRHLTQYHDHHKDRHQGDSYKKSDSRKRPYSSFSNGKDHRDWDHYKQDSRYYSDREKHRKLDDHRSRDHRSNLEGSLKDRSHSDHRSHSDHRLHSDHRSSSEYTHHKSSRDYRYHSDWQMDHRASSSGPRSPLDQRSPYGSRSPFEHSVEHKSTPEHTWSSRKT
UniProt Q96NY7: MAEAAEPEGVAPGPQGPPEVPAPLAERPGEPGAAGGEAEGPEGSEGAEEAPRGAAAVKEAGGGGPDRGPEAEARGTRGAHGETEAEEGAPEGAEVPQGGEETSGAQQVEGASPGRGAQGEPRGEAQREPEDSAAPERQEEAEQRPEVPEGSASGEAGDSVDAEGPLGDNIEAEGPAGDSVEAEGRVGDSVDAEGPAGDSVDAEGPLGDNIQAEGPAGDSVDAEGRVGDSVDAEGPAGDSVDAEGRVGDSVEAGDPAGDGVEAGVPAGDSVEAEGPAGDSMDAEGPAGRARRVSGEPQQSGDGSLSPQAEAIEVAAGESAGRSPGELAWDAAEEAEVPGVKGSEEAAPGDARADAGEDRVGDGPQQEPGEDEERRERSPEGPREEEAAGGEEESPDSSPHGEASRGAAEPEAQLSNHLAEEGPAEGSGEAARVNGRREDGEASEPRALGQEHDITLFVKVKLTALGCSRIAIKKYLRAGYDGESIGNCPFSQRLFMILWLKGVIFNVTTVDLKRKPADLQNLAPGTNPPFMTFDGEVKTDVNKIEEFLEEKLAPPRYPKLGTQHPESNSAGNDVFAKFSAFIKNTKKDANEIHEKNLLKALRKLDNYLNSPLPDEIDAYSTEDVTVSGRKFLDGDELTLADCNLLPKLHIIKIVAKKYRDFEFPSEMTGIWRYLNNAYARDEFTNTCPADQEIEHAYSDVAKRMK
UniProt O76031, whole entry, looked up: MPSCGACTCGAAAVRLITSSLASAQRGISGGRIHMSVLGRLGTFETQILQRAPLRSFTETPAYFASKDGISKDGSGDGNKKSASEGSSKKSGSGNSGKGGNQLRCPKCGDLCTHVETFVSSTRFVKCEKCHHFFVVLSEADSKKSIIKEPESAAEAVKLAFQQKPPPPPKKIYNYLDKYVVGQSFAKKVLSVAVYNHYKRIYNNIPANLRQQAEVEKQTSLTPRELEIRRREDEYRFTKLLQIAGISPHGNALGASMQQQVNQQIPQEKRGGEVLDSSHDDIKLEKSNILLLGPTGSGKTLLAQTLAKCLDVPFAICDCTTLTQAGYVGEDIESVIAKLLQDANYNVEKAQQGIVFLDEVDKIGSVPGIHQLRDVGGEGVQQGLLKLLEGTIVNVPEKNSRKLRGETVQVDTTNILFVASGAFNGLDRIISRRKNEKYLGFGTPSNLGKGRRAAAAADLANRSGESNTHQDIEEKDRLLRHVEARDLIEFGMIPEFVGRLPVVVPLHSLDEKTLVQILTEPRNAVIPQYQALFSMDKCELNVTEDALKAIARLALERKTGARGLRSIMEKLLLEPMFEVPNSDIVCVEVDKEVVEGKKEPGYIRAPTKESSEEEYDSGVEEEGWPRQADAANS
UniProt Q9NZZ3: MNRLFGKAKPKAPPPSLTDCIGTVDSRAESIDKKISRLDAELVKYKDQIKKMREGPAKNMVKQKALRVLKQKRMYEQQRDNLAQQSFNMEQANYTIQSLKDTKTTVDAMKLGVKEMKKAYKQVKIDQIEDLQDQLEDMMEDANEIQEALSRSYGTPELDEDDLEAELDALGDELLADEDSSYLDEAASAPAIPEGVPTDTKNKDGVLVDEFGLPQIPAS
UniProt P12277: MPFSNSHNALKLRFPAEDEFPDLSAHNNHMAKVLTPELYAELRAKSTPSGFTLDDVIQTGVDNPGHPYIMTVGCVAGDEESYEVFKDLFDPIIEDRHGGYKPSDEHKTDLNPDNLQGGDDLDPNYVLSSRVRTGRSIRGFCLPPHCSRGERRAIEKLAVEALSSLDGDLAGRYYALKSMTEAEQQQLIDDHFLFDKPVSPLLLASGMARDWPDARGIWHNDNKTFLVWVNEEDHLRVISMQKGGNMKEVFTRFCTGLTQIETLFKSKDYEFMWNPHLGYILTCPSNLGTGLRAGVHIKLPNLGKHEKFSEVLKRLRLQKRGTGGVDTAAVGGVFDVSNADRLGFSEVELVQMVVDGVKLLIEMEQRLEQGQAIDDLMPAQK
UniProt Q9H5X1: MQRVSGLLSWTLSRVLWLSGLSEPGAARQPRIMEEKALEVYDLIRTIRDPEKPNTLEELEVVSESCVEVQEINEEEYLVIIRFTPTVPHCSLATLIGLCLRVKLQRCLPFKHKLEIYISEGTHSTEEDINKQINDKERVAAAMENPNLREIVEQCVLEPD
UniProt Q9Y3Y2: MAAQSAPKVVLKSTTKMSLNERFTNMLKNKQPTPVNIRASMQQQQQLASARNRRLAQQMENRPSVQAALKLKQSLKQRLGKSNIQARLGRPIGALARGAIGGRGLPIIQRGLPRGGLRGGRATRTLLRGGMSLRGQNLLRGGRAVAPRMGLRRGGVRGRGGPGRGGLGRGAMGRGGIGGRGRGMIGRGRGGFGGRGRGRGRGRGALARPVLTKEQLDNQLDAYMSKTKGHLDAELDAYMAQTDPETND
UniProt Q8IY22: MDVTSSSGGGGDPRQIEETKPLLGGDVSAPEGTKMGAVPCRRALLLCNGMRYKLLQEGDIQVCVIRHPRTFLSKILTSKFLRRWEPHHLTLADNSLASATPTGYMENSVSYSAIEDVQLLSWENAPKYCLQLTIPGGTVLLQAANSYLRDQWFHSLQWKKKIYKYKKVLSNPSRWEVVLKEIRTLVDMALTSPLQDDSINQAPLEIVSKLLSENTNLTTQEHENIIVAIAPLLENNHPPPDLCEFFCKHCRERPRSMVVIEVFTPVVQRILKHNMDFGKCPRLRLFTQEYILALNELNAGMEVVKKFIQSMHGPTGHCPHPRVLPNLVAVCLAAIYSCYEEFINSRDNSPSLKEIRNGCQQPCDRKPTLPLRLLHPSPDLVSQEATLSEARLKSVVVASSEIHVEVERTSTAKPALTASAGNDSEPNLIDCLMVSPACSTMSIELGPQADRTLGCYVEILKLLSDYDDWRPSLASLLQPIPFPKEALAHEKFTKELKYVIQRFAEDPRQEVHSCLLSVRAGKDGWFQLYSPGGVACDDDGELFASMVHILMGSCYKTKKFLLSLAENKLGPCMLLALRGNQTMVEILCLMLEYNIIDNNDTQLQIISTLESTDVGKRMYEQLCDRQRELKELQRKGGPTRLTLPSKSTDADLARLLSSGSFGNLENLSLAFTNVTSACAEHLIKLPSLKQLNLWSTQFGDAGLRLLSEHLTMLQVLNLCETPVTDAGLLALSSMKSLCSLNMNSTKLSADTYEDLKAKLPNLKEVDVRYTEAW
UniProt P26374: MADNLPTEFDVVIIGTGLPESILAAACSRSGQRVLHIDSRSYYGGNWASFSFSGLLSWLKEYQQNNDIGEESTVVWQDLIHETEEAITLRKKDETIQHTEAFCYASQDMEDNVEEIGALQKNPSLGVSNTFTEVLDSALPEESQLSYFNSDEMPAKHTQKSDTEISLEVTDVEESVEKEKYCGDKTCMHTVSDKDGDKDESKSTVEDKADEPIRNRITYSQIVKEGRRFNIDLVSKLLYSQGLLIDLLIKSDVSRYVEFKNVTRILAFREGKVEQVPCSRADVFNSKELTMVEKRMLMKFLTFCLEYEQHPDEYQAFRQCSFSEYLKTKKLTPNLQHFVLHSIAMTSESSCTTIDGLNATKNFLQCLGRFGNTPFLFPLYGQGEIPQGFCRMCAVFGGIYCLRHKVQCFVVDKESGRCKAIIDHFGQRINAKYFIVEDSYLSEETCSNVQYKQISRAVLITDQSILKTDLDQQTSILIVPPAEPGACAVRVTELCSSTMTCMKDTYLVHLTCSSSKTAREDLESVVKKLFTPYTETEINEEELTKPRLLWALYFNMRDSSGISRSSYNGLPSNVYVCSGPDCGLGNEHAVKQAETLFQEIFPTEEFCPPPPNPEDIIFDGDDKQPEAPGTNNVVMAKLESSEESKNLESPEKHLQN
UniProt Q8WWK9: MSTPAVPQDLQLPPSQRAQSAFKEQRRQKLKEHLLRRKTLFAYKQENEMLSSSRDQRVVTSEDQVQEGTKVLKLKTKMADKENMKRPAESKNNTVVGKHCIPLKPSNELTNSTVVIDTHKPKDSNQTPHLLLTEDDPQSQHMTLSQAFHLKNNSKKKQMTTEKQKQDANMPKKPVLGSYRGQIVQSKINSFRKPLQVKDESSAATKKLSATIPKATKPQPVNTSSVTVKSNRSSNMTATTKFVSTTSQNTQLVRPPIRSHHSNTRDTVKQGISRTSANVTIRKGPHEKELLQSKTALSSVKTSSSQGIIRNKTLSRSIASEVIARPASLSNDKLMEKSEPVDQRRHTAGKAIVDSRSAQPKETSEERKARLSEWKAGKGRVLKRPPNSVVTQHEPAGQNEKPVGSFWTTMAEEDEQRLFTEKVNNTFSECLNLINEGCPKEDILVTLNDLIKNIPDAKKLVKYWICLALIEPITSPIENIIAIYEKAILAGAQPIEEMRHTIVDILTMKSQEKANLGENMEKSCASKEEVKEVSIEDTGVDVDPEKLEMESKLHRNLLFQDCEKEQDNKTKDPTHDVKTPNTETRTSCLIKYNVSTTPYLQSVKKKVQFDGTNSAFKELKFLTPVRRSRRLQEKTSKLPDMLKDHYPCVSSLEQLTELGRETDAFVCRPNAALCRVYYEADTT
UniProt Q5T1J5: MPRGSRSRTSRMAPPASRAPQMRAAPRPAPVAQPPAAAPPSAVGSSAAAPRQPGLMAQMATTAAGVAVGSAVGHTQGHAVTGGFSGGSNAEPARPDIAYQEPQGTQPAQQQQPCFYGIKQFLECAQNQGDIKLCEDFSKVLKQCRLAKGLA
UniProt Q7Z7K0: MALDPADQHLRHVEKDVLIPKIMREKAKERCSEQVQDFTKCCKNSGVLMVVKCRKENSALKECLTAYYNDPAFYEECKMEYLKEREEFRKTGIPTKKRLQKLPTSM

What was measured:
Test in all cases: log2 fold change, soluble protein after heating vs DMSO (PISA); higher = thermal stabilisation; K562 lysate, 10 uM; active = over 0.2 and 3.5 SD of the protein, either way, in both replicates (recomputed)
vemurafenib = compound: CCCS(=O)(=O)Nc1ccc(F)c(C(=O)c2c[nH]c3ncc(-c4ccc(Cl)cc4)cc23)c1F [vemurafenib]
In short: (§1)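 The values are log-two fold changes in thermal stability compared with solvent controls and come from duplicates. They were obtained by TMTpro 16plex LC-MS/MS, with channel sums equalised, on the supernatant after 21,000xg for 90 min. That supernatant came from crude K562 extract at 1 mg/mL protein treated with 10 μM compound for 30 min, heated for 3 min across 48°C-58°C, pooled and brought to 0.5% NP-40 at 4°C.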

[1] = compound: CCCS(=O)(=O)Nc1ccc(F)c(C(=O)c2c[nH]c3ncc(Cl)cc23)c1F
In short: as §1

barasertib = compound: CCN(CCCOc1ccc2c(Nc3cc(CC(=O)Nc4cccc(F)c4)[nH]n3)ncnc2c1)CCOP(=O)(O)O [barasertib]
In short: as §1

[2] = compound: CC[C@@H]1C(=O)N(C)c2cnc(Nc3ccc(C(=O)NC4CCN(C)CC4)cc3OC)nc2N1C1CCCC1
In short: as §1

volasertib = compound: CC[C@@H]1C(=O)N(C)c2cnc(Nc3ccc(C(=O)N[C@H]4CC[C@H](N5CCN(CC6CC6)CC5)CC4)cc3OC)nc2N1C(C)C [volasertib]
In short: as §1

[3] = compound: CCn1c(C(=O)N(C2CC2)C2CC2)cc2c3c(ncn3C)c(Nc3cc(C)n(C)n3)nc21
In short: as §1

[4] = compound: CCn1cc(-c2ccnc3[nH]c(-c4cccc(CN(C)C)c4)cc23)c(-c2ccc(NC(=O)N(C)C)cc2)n1
In short: as §1

[5] = compound: CN1CCC(CNc2ccc3ncc(-c4cccc(OC(F)(F)F)c4)n3n2)CC1
In short: as §1

saracatinib = compound: CN1CCN(CCOc2cc(OC3CCOCC3)c3c(Nc4c(Cl)ccc5c4OCO5)ncnc3c2)CC1 [saracatinib]
In short: as §1

sotrastaurin = compound: CN1CCN(c2nc(C3=C(c4c[nH]c5ccccc45)C(=O)NC3=O)c3ccccc3n2)CC1 [sotrastaurin]
In short: as §1

alvocidib = compound: CN1CC[C@H](c2c(O)cc(O)c3c(=O)cc(-c4ccccc4Cl)oc23)[C@H](O)C1 [alvocidib]
In short: as §1

Tubastatin A = compound: CN1CCc2c(c3ccccc3n2Cc2ccc(C(=O)NO)cc2)C1 [Tubastatin A]
In short: as §1

[6] = compound: CNC(=O)C1=CC=CC=C1NC2=NC(=NC=C2Cl)NC3=C(C=C(C=C3)N4CCOCC4)OC
In short: as §1

defactinib = compound: CNC(=O)c1ccc(Nc2ncc(C(F)(F)F)c(NCc3nccnc3N(C)S(C)(=O)=O)n2)cc1 [defactinib]
In short: as §1

[7] = compound: CNc1nc(-c2ccc3c(N)n[nH]c3c2)cc(N2C[C@@H](C(=O)NC3CCCCC3)CC[C@H]2C)n1
In short: as §1

encorafenib = compound: COC(=O)N[C@@H](C)CNc1nccc(-c2cn(C(C)C)nc2-c2cc(Cl)cc(NS(C)(=O)=O)c2F)n1 [encorafenib]
In short: as §1

[8] = compound: COC(=O)[C@H](CCSC)NC(=O)C1=C(C=C(C=C1)NC[C@H](CS)N)C2=CC=CC=C2
In short: as §1

alisertib = compound: COc1cc(Nc2ncc3c(n2)-c2ccc(Cl)cc2C(c2c(F)cccc2OC)=NC3)ccc1C(=O)O [alisertib]
In short: as §1

[9] = compound: COc1cc2nc(-c3cc(F)ccc3O)nc(N[C@@H]3CNC[C@H]3C(C)(C)O)c2cc1OC
In short: as §1

gefitinib = compound: COc1cc2ncnc(Nc3ccc(F)c(Cl)c3)c2cc1OCCCN1CCOCC1 [gefitinib]
In short: as §1

Measured: log2 fold change

CHID1 (UniProt Q9BWS9)
inactive: vemurafenib 0.017 | [1] -0.011 | barasertib 0.019 | [2] 0.038 | volasertib -0.006 | [3] -0.007 | [4] 0.088 | [5] -0.045 | saracatinib 0.004 | sotrastaurin -0.009 | alvocidib 0.038 | Tubastatin A 0.029 | [6] -0.046 | defactinib -0.003 | [7] 0.036 | encorafenib 0.006 | [8] -0.036 | alisertib 0.001 | [9] 0.024 | gefitinib 0.024

CHD1 (UniProt O14646)
inactive: vemurafenib -0.04 | [1] 0.01 | barasertib -0.006 | [2] -0.12 | volasertib -0.035 | [3] 0.061 | [4] 0.007 | [5] 0.04 | saracatinib -0.136 | sotrastaurin 0.059 | alvocidib 0.023 | Tubastatin A -0.017 | [6] 0.015 | defactinib 0.004 | [7] -0.044 | encorafenib 0.035 | [8] 0.204 | alisertib -0.032 | [9] 0.052 | gefitinib 0.039

CLIC6 (UniProt Q96NY7)
inactive: vemurafenib 0.029 | [1] 0.046 | barasertib -0.073 | [2] -0.017 | volasertib -0.045 | [3] 0.006 | [4] -0.037 | [5] 0.008 | saracatinib -0.02 | sotrastaurin 0.051 | alvocidib 0.03 | Tubastatin A -0.089 | [6] 0.032 | defactinib 0.01 | [7] -0.017 | encorafenib 0.02 | [8] 0.049 | [9] 0.043

CLPX (UniProt O76031)
inactive: vemurafenib 0.03 | [1] 0.02 | barasertib 0.037 | [2] -0.008 | volasertib -0.076 | [3] -0.006 | [4] 0.026 | [5] 0.024 | saracatinib 0.022 | sotrastaurin 0.006 | alvocidib 0.018 | Tubastatin A -0.048 | [6] -0.017 | defactinib 0.022 | [7] 0.024 | encorafenib -0.006 | [8] 0.086 | alisertib -0.04 | [9] 0.035 | gefitinib -0.008

CHMP5 (UniProt Q9NZZ3)
inactive: vemurafenib 0 | [1] 0.003 | barasertib -0.008 | [2] 0.007 | volasertib 0.025 | [3] 0 | [4] -0.045 | [5] 0.023 | saracatinib -0.02 | sotrastaurin -0.015 | alvocidib -0.027 | Tubastatin A 0.052 | [6] 0.002 | defactinib 0.066 | [7] -0.017 | encorafenib 0.006 | [8] -0.013 | alisertib 0.007 | [9] 0.017 | gefitinib 0.041

CKMT2 (UniProt P17540)
inactive: vemurafenib 0.117 | [1] 0.021 | barasertib -0.011 | [2] 0.038 | volasertib 0.037 | [3] -0.035 | [4] 0.306 | [5] 0.159 | saracatinib -0.032 | sotrastaurin 0.022 | alvocidib -0.115 | Tubastatin A 0.053 | [6] 0.018 | defactinib -0.034 | [7] 0.116 | encorafenib 0.007 | [8] 0.013 | alisertib 0.056 | [9] 0.002 | gefitinib -0.019

CKB (UniProt P12277)
inactive: vemurafenib -0.027 | [1] 0.008 | barasertib -0.018 | [2] -0.06 | volasertib -0.012 | [3] 0.012 | [4] 0.068 | [5] -0.021 | saracatinib 0.011 | sotrastaurin -0.011 | alvocidib 0.012 | Tubastatin A -0.04 | [6] -0.008 | defactinib 0.039 | [7] -0.011 | encorafenib -0.055 | [8] 0.076 | alisertib 0.026 | [9] -0.018 | gefitinib -0.013

CIAO2A (UniProt Q9H5X1)
inactive: vemurafenib -0.028 | [1] -0.032 | barasertib 0.094 | [2] -0.042 | volasertib -0.007 | [3] 0.026 | [4] 0.233 | [5] -0.203 | saracatinib 0.033 | sotrastaurin 0.034 | alvocidib 0.034 | Tubastatin A 0.04 | [6] 0 | defactinib -0.002 | [7] 0.109 | encorafenib 0.026 | [8] -0.052 | alisertib 0.089 | [9] 0.009 | gefitinib 0.088

Retrieved one by one from the list above, 2 records:
CKB (UniProt P12277)
inactive: vemurafenib -0.027 | [1] 0.008 | barasertib -0.018 | [2] -0.06 | volasertib -0.012 | [3] 0.012 | [4] 0.068 | [5] -0.021 | saracatinib 0.011 | sotrastaurin -0.011 | alvocidib 0.012 | Tubastatin A -0.04 | [6] -0.008 | defactinib 0.039 | [7] -0.011 | encorafenib -0.055 | [8] 0.076 | alisertib 0.026 | [9] -0.018 | gefitinib -0.013

CHD1 (UniProt O14646)
inactive: vemurafenib -0.04 | [1] 0.01 | barasertib -0.006 | [2] -0.12 | volasertib -0.035 | [3] 0.061 | [4] 0.007 | [5] 0.04 | saracatinib -0.136 | sotrastaurin 0.059 | alvocidib 0.023 | Tubastatin A -0.017 | [6] 0.015 | defactinib 0.004 | [7] -0.044 | encorafenib 0.035 | [8] 0.204 | alisertib -0.032 | [9] 0.052 | gefitinib 0.039

Next part.

CHTOP isoform 3 (UniProt Q9Y3Y2)
inactive: vemurafenib -0.032 | [1] 0.05 | barasertib -0.045 | [2] 0.114 | volasertib -0.025 | [3] -0.083 | [4] -0.106 | [5] 0.037 | saracatinib 0.036 | sotrastaurin -0.008 | alvocidib 0.115 | Tubastatin A 0.011 | [6] -0.122 | defactinib 0.014 | [7] 0.067 | encorafenib -0.029 | [8] 0.14 | [9] -0.004

CMIP (UniProt Q8IY22)
inactive: vemurafenib 0.009 | [1] 0.023 | barasertib 0.04 | [2] -0.055 | volasertib -0.057 | [3] 0.043 | [4] -0.043 | [5] -0.054 | saracatinib 0.014 | sotrastaurin 0.017 | alvocidib 0.002 | Tubastatin A -0.161 | [6] 0.001 | defactinib 0.061 | [7] -0.015 | encorafenib 0.078 | [8] 0.025 | alisertib -0.012 | [9] -0.016 | gefitinib 0.007

CHML (UniProt P26374)
inactive: vemurafenib 0.01 | [1] 0.008 | barasertib 0.004 | [2] 0.011 | volasertib 0.022 | [3] -0.007 | [4] -0.012 | [5] 0.026 | saracatinib -0.002 | sotrastaurin 0.005 | alvocidib -0.019 | Tubastatin A 0.008 | [6] -0.004 | defactinib -0.025 | [7] 0.002 | encorafenib 0.003 | [8] 0.005 | alisertib 0.014 | [9] 0.011 | gefitinib 0.012

CKAP2 (UniProt Q8WWK9)
inactive: vemurafenib -0.095 | [1] 0.01 | barasertib -0.014 | [2] 0.073 | volasertib 0.009 | [3] -0.024 | [4] 0.062 | [5] -0.094 | saracatinib 0.019 | sotrastaurin 0.019 | alvocidib -0.059 | Tubastatin A -0.009 | [6] 0.071 | defactinib -0.075 | [7] 0.028 | encorafenib 0.097 | [8] -0.092 | alisertib -0.044 | [9] 0.049 | gefitinib 0.06

CHCHD2P9 (UniProt Q5T1J5)
inactive: vemurafenib 0.08 | [1] -0.01 | barasertib -0.022 | [2] 0.113 | volasertib 0.014 | [3] -0.053 | [4] 0.048 | [5] 0.116 | saracatinib -0.061 | sotrastaurin 0.082 | alvocidib 0.026 | Tubastatin A 0.061 | [6] -0.01 | defactinib 0.108 | [7] 0.008 | encorafenib 0.021 | [8] -0.086 | alisertib -0.003 | [9] -0.007 | gefitinib 0.131

CMPK2 (UniProt Q5EBM0)
inactive: vemurafenib 0.026 | [1] 0.048 | barasertib 0.155 | [2] 0.018 | volasertib 0.015 | [3] -0.03 | [4] -0.001 | [5] 0.007 | saracatinib 0.006 | sotrastaurin -0.019 | alvocidib -0.046 | Tubastatin A 0.005 | [6] 0.018 | defactinib 0.027 | [7] -0.006 | encorafenib 0.01 | [8] 0.028 | alisertib -0.026 | [9] 0.018 | gefitinib -0.022

CLCN3 (UniProt P51790)
inactive: vemurafenib -0.096 | [1] -0.076 | barasertib 0.014 | [2] -0.178 | volasertib -0.025 | [3] 0.034 | [4] 0.009 | [5] 0.004 | saracatinib 0.01 | sotrastaurin -0.017 | alvocidib -0.03 | Tubastatin A -0.012 | [6] -0.042 | defactinib -0.024 | [7] -0.194 | encorafenib 0.05 | [8] 0.003 | alisertib 0.005 | [9] -0.043 | gefitinib 0.029

CMC1 (UniProt Q7Z7K0)
inactive: vemurafenib -0.037 | [1] 0.008 | barasertib -0.045 | [2] 0.045 | volasertib 0.023 | [3] 0.036 | [4] -0.008 | [5] 0.042 | saracatinib 0.096 | sotrastaurin 0.078 | alvocidib -0.093 | Tubastatin A 0.047 | [6] 0.031 | defactinib -0.07 | [7] -0.041 | encorafenib 0.018 | [8] -0.042 | alisertib -0.022 | [9] 0 | gefitinib 0.197
